Whole data set: some 3,200 compounds, median “TSA(with NAD+) / Primary screening (TSA) / delta Tm (K)” near -0.04, cut for the highest 2% near 0.37. The list shows a part of the results.

Amino acid sequences for entries named in this document (tags omitted). Residues count along the entry.
UniProt Q96EB6, 2-747 limits assumed: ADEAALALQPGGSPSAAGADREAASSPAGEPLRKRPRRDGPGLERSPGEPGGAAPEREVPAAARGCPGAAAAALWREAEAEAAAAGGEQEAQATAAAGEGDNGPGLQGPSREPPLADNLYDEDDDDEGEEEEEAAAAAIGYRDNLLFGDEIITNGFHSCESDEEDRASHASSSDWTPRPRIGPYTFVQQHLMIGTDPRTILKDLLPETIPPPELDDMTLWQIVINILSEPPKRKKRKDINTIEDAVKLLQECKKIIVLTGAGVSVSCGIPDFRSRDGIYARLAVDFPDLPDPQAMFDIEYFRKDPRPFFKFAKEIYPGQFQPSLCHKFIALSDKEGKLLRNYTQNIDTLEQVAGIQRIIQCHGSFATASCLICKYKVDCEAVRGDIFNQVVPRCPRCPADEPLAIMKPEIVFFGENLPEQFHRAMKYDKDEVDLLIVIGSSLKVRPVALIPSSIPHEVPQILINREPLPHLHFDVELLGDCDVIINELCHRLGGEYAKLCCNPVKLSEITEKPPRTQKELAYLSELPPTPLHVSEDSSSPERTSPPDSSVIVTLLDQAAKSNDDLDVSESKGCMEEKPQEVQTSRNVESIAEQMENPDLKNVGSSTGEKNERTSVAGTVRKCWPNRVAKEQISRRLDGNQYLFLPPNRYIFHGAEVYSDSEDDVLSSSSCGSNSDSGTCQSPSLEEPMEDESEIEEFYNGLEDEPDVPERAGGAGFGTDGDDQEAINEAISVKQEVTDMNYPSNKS

For this assay, the target named is NAD-dependent deacetylase Sirtuin 1 (human, UniProt Q96EB6). Kind of assay: primary screen, delta tm. The note with it: 10 µM. More on the design: single well (n = 1, as 'the same TSA').
For the compound `C=CCNc1nnc(SCC(O)COC(c2ccccc2)c2ccccc2C)s1` (centres unmarked), the “TSA(with NAD+) / Primary screening (TSA) / delta Tm (K)” value was -0.01 K.

`Cc1nn(-c2ccc(F)cc2)c(C)c1CNCc1ccccc1`: the “TSA(with NAD+) / Primary screening (TSA) / delta Tm (K)” value is on record as -0.23 K.

Regarding `NC1CCCCC1N` (centres unmarked), the “TSA(with NAD+) / Primary screening (TSA) / delta Tm (K)” value is given as -0.18 K.

As to `COC(=O)c1ccc(C2C(C(=O)c3sc(C)nc3C)=C(O)C(=O)N2CCN2CCOCC2)cc1` (centres unmarked), the “TSA(with NAD+) / Primary screening (TSA) / delta Tm (K)” value is -0.09 K.

As to `COc1ccc(N(Cc2ccc(C(N)=O)cc2)Cc2ccc(C(N)=O)cc2)cc1`, the “TSA(with NAD+) / Primary screening (TSA) / delta Tm (K)” value is recorded as -0.11 K.

As for `CS(=O)(=O)NN`, the “TSA(with NAD+) / Primary screening (TSA) / delta Tm (K)” value is -0.16 K.

Consider `O=C(CSc1nnc(NCc2ccco2)s1)Nc1nc(-c2ccc(F)cc2)cs1`, for which the “TSA(with NAD+) / Primary screening (TSA) / delta Tm (K)” value is -0.09 K.

As to `CC(CN)C1CC1` (centres unmarked), the “TSA(with NAD+) / Primary screening (TSA) / delta Tm (K)” value was -0.21 K.

In the case of `Cc1cccc2nc(C(=O)Nc3nc(SCc4ccc(Cl)cc4)n[nH]3)cn12`, the “TSA(with NAD+) / Primary screening (TSA) / delta Tm (K)” value is 0.11 K.

With `Cc1ccc(Cn2c(=O)c3ccccc3n3c(SCC4CCCCO4)nnc23)cc1` (centres unmarked), the “TSA(with NAD+) / Primary screening (TSA) / delta Tm (K)” value is -0.28 K.

With `CCS(=O)(=O)CCNC(=O)/C=C/c1cccc2ccccc12`, the “TSA(with NAD+) / Primary screening (TSA) / delta Tm (K)” value is -0.13 K.

Regarding `O=C(Nc1cccc(S(=O)(=O)N2CCOCC2)c1)c1ccccc1COc1ccccc1`, the “TSA(with NAD+) / Primary screening (TSA) / delta Tm (K)” value is -0.09 K.

As to `CC(C(=O)c1c[nH]c2ccccc12)N(C)CCOc1ccccc1F` (centres unmarked), the “TSA(with NAD+) / Primary screening (TSA) / delta Tm (K)” value was -0.01 K.

For `Cc1cccc(Cc2cnc(NC(=O)c3ccc(COc4ccc5c(C)cc(=O)oc5c4)cc3)s2)c1`, the “TSA(with NAD+) / Primary screening (TSA) / delta Tm (K)” value is listed as -0.03 K.

On to `N=c1nc[nH]c2c1ncn2CCC(N)=O`, for which the “TSA(with NAD+) / Primary screening (TSA) / delta Tm (K)” value stood at 0.08 K.

As for `O=C(CCC(=O)c1ccccc1)Nc1ccccc1Cc1ccccc1`, the “TSA(with NAD+) / Primary screening (TSA) / delta Tm (K)” value is reported as -0.11 K.

In the case of `C=CCOc1ccc(C2C(C(=O)c3ccc(C)o3)=C(O)C(=O)N2CCCN2CCOCC2)cc1` (centres unmarked), the “TSA(with NAD+) / Primary screening (TSA) / delta Tm (K)” value is recorded as -0.04 K.

As to `O=C(NCc1nnc2ccccn12)c1cn(Cc2ccccc2)nc1-c1ccc(Cl)cc1`, the “TSA(with NAD+) / Primary screening (TSA) / delta Tm (K)” value is -0.03 K.

For the compound `CCC(=O)N1N=C(c2ccco2)CC1c1ccc(N(C)C)cc1` (centres unmarked), the “TSA(with NAD+) / Primary screening (TSA) / delta Tm (K)” value is listed as -0.16 K.

Take `CN(C)c1ccc([N+](=O)[O-])cn1`: the “TSA(with NAD+) / Primary screening (TSA) / delta Tm (K)” value is listed as 0.18 K.

For the compound `N#Cc1ccccc1Sc1ccccc1C(=O)Nc1ccc(-c2cn3cccnc3n2)cc1`, the “TSA(with NAD+) / Primary screening (TSA) / delta Tm (K)” value is given as -0.03 K.

Turning to `O=C(O)CCn1cc(C=C2C(=O)NC(=S)NC2=O)c(-c2cccc(Br)c2)n1`, the “TSA(with NAD+) / Primary screening (TSA) / delta Tm (K)” value is 0.06 K.

On to `CC(OC(=O)c1cccc(S(=O)(=O)NCc2ccccc2)c1)C(=O)NC12CC3CC(CC(C3)C1)C2` (centres unmarked), for which the “TSA(with NAD+) / Primary screening (TSA) / delta Tm (K)” value was determined as 0.16 K.

Regarding `O=C(c1cnc2ccccc2n1)N1CCCC1c1nc2ccccc2s1` (centres unmarked), the “TSA(with NAD+) / Primary screening (TSA) / delta Tm (K)” value is reported as -0.03 K.

For `O=C(O)C1CC(=O)N(c2ccc(S(=O)(=O)N3CCCc4cccc(F)c43)cc2)C1` (centres unmarked), the “TSA(with NAD+) / Primary screening (TSA) / delta Tm (K)” value is reported as -0.03 K.

On to `CC1CCN(C)c2ccccc2N1CCOc1ccc(S(N)(=O)=O)cc1` (centres unmarked), for which the “TSA(with NAD+) / Primary screening (TSA) / delta Tm (K)” value is -0.06 K.

As for `CC(=O)N(C)CC(=O)NCC1CC2c3ccccc3C1c1ccccc12` (centres unmarked), the “TSA(with NAD+) / Primary screening (TSA) / delta Tm (K)” value was -0.11 K.

As for `N#C/C(=C/c1ccc(-c2cc(Cl)ccc2Cl)o1)C(=O)Nc1cccc2ncccc12`, the “TSA(with NAD+) / Primary screening (TSA) / delta Tm (K)” value was -0.18 K.

As for `OC(CNCCc1c[nH]c2ccccc12)c1ccccc1` (centres unmarked), the “TSA(with NAD+) / Primary screening (TSA) / delta Tm (K)” value is reported as -0.03 K.

In the case of `CC(C)c1ccc(OCc2nnc(SCC(=O)Nc3ccccc3-c3ccccc3)n2N)cc1`, the “TSA(with NAD+) / Primary screening (TSA) / delta Tm (K)” value was -0.11 K.

Take `Cc1sc2ncnc(N3CCC(C(=O)N4CCC(C(N)=O)CC4)CC3)c2c1C`: the “TSA(with NAD+) / Primary screening (TSA) / delta Tm (K)” value was -0.03 K.

In the case of `CCn1nc(C(=O)NC2CCCc3ccccc32)c2ccccc2c1=O` (centres unmarked), the “TSA(with NAD+) / Primary screening (TSA) / delta Tm (K)” value was -0.23 K.

In the case of `COc1ccccc1C(=O)NCC(=O)OCC(=O)Nc1ccc(C(N)=O)cc1`, the “TSA(with NAD+) / Primary screening (TSA) / delta Tm (K)” value was found to be 0.06 K.

`Sc1ncnc2c1oc1ccccc12`: the “TSA(with NAD+) / Primary screening (TSA) / delta Tm (K)” value was 0.06 K.

For `NC(=O)COC(=O)CC1Sc2ccc(C(F)(F)F)cc2NC1=O` (centres unmarked), the “TSA(with NAD+) / Primary screening (TSA) / delta Tm (K)” value is recorded as -0.01 K.

`CC1Oc2ccc(NC(=O)c3cccc(S(=O)(=O)N(C)c4ccccc4)c3)cc2NC1=O` (centres unmarked): the “TSA(with NAD+) / Primary screening (TSA) / delta Tm (K)” value was 0.02 K.

On to `CCc1cc2c(N3CCCC(c4cc(C(N)=O)[nH]n4)C3)ncnc2s1` (centres unmarked), for which the “TSA(with NAD+) / Primary screening (TSA) / delta Tm (K)” value stood at 0.06 K.

Consider `CC(C)CCCC(C)NC(=O)c1cc(-c2ccccc2)nc2c(C(N)=O)ncn12` (centres unmarked), for which the “TSA(with NAD+) / Primary screening (TSA) / delta Tm (K)” value was -0.01 K.

Turning to `O=C(O)C1CC(=O)N(c2ccc(S(=O)(=O)Nc3ccc(F)c(F)c3)cc2)C1` (centres unmarked), the “TSA(with NAD+) / Primary screening (TSA) / delta Tm (K)” value is listed as -0.18 K.

On to `Cc1c(CCO)c(=O)n2c([nH]c3ccccc32)c1C#N`, for which the “TSA(with NAD+) / Primary screening (TSA) / delta Tm (K)” value is on record as -0.03 K.

For the compound `COc1ccc(/C=C2/COc3ccc(Br)cc3C2=O)c(OC)c1OC`, the “TSA(with NAD+) / Primary screening (TSA) / delta Tm (K)” value was -0.01 K.

Regarding `Cc1cccc(C2NC(=O)c3ccccc3N2C)c1` (centres unmarked), the “TSA(with NAD+) / Primary screening (TSA) / delta Tm (K)” value is reported as 0.18 K.

Consider `CC1CCc2c(sc3ncnc(N4CCCN(CC(N)=O)CC4)c23)C1` (centres unmarked), for which the “TSA(with NAD+) / Primary screening (TSA) / delta Tm (K)” value is -0.05 K.

As for `CCOc1cc(/C=N/NC(=O)c2cc3c(s2)CCCC3)ccc1OCC(=O)Nc1cccc(C(F)(F)F)c1`, the “TSA(with NAD+) / Primary screening (TSA) / delta Tm (K)” value came to 1.05 K.

Take `CC(C)(C)C(N)CN` (centres unmarked): the “TSA(with NAD+) / Primary screening (TSA) / delta Tm (K)” value is -0.11 K.

`CCCNCC`: the “TSA(with NAD+) / Primary screening (TSA) / delta Tm (K)” value is -0.11 K.

With `Cc1ccc2[nH]c3c(c2c1)CC(N1CC(CN)CC1C)CC3` (centres unmarked), the “TSA(with NAD+) / Primary screening (TSA) / delta Tm (K)” value is on record as -0.16 K.

Turning to `Cn1c(-c2ccccc2)c(C(=O)CC#N)c2ccccc21`, the “TSA(with NAD+) / Primary screening (TSA) / delta Tm (K)” value is -0.05 K.

Take `CN(c1ccc(CNC(=O)c2cc[n+]([O-])cc2)cc1)C1CCCCC1`: the “TSA(with NAD+) / Primary screening (TSA) / delta Tm (K)” value is listed as -0.22 K.

Take `NC(=O)c1cc(NC(=O)CN2CCCC2c2cccs2)cc(C(N)=O)c1` (centres unmarked): the “TSA(with NAD+) / Primary screening (TSA) / delta Tm (K)” value was 0.03 K.

Consider `COc1ccc(NC(=O)COC(=O)/C=C/c2cc(OC)c(OC)c(S(=O)(=O)N3CCc4ccccc43)c2)cc1S(=O)(=O)N1CCCCC1`, for which the “TSA(with NAD+) / Primary screening (TSA) / delta Tm (K)” value was -0.01 K.

On to `Cc1ccc2[nH]c(SCC(=O)N3CCCC(C(N)=O)C3)nc2c1` (centres unmarked), for which the “TSA(with NAD+) / Primary screening (TSA) / delta Tm (K)” value was -0.15 K.

On to `O=C1CCCN1C(=O)Cn1cnc2cc(Cl)ccc2c1=O`, for which the “TSA(with NAD+) / Primary screening (TSA) / delta Tm (K)” value is -0.04 K.

For `Cc1n[nH]c(=O)c(C(=O)NNC(=O)CC23CC4CC(CC(C4)C2)C3)c1C`, the “TSA(with NAD+) / Primary screening (TSA) / delta Tm (K)” value amounted to 0.19 K.

For `Cc1nc(N2CCN(c3cccc(C(F)(F)F)c3)CC2)c2c3c(sc2n1)CCC3`, the “TSA(with NAD+) / Primary screening (TSA) / delta Tm (K)” value is given as -0.03 K.

As to `O=C1/C(=C/c2ccc(OC(F)F)cc2OC(F)F)Oc2cc(O)ccc21`, the “TSA(with NAD+) / Primary screening (TSA) / delta Tm (K)” value amounted to 0.37 K.

`Cc1nc(N2CCC(c3nnc(N(C)C)[nH]3)CC2)c2c3c(sc2n1)CCCC3`: the “TSA(with NAD+) / Primary screening (TSA) / delta Tm (K)” value is given as -0.23 K.

On to `Cc1ccc(C(=O)Nc2nc3ccc(NS(=O)(=O)c4ccc5c(c4)CCC(=O)N5)cc3s2)s1`, for which the “TSA(with NAD+) / Primary screening (TSA) / delta Tm (K)” value came out at 0.46 K.

Take `CC1CC(N(C)CCCOc2cccc(S(C)(=O)=O)c2)C(=O)O1` (centres unmarked): the “TSA(with NAD+) / Primary screening (TSA) / delta Tm (K)” value is -0.14 K.

For the origin of these results see PMC6925144, “A prospective compound screening contest identified broader inhibitors for Sirtuin 1” (Scientific Reports, 2019).
